Data on nine compounds can be found in the supplement of paper PMC4604168 (melanoma cell lines).

This is one part of the list. Repeats are few or missing, and single values can be far off.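 Cells were imaged in 1,536-well plates, and nuclei stained with an antibody against cleaved PARP were counted against all DNA-stained nuclei to give the apoptosis fraction. Screening doses were chosen to leave most cells alive, and resting and induced cleaved-PARP levels differ strongly between cell lines.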

Among the test systems are MZ2-MEL; MeWo; RPMI7951; RVH-421; SkMel28; SkMel2; SkMel30; SkMel5; UACC257; UACC62; WM115; WM1716; WM1745; WM3526; WM3619; WM451Lu.
Holding throughout (experiment): cleaved PARP positive nuclei fraction relative to DMSO control; melanoma cells; higher = more apoptosis
What all share (details): library dose: low library concentration; 72 h

As to `O=c1[nH]nc(Sc2ncc([N+](=O)[O-])s2)n1-c1ccc2c(c1)OCCO2` + OCCn1cc(-c2cnc3nnn(Cc4ccc5ncccc5c4)c3n2)cn1 [PF04217903] (first compound 0.2 µM, partner dose 1 µM), the “cleaved PARP positive nuclei fraction” value in the experiment on MZ2-MEL is 112%; in the experiment with MeWo it was 103%; with RPMI7951, 104%; in the experiment on RVH-421, 90.2%; in the experiment on SkMel28 it was 81.4%; in the experiment on SkMel2, 84.1%. The “cleaved PARP positive nuclei fraction” value was found to be 54.4% with SkMel30; 88.5% in the experiment on SkMel5; 162% in the experiment with UACC257; 200% in the experiment on UACC62; 87.9% in the experiment with WM115; 60.3% with WM1716. The “cleaved PARP positive nuclei fraction” value with WM1745 was 91.9%; in the experiment with WM3526, 65.5%; in the experiment with WM3619, 103%; in the experiment with WM451Lu, 77.4%.

Regarding `O=C(/C=C/c1cccnc1)NCCCCC1CCN(C(=O)c2ccccc2)CC1` + O=C(CCCCCCC(=O)Nc1ccccc1)NO [vorinostat] (first compound 0.01 µM, partner dose 0.08 µM), the “cleaved PARP positive nuclei fraction” value is 239% with MZ2-MEL; 135% in the experiment on MeWo; 52.9% with RPMI7951; 102% with RVH-421; 97.9% in the experiment with SkMel28; 635% with SkMel2. In addition, the “cleaved PARP positive nuclei fraction” value in the experiment with SkMel30 is 58.4%; with SkMel5, 84.7%; in the experiment on UACC257, 112%; in the experiment on UACC62, 137%; in the experiment with WM115 it was 51.3%; in the experiment on WM1716 it was 105%. Besides, the “cleaved PARP positive nuclei fraction” value in the experiment on WM1745 turned out to be 98.6%; with WM3526, 174%; with WM3619, 109%; in the experiment with WM451Lu, 229%.

`Cc1ccc(Nc2nccc(N(C)c3ccc4c(C)n(C)nc4c3)n2)cc1S(N)(=O)=O` [Pazopanib] + O=c1cc(-c2cccc3c2Sc2ccccc2S3)oc(N2CCOCC2)c1 [KU55933] (first compound 0.4 µM, partner dose 1 µM): the “cleaved PARP positive nuclei fraction” value is 49% with MZ2-MEL; 29.8% in the experiment on MeWo; 75.2% with RPMI7951; 191% with RVH-421; 192% in the experiment on SkMel28; 111% in the experiment with SkMel2. The “cleaved PARP positive nuclei fraction” value amounted to 64.9% with SkMel30; 141% in the experiment on SkMel5; 65.5% in the experiment with UACC257; 71.3% in the experiment on UACC62; 250% in the experiment with WM115; 138% in the experiment on WM1716. For the same compound, the “cleaved PARP positive nuclei fraction” value stood at 86.6% with WM1745, 281% in the experiment with WM3526, 90.1% in the experiment with WM3619 and 41% in the experiment on WM451Lu.

For the compound `Cc1cc(Nc2cc(N3CCN(C)CC3)nc(Sc3ccc(NC(=O)C4CC4)cc3)n2)n[nH]1` [Tozasertib] + O=C(O)c1ccc(-c2c[nH]c3ncc(-c4ccccc4)cc23)cc1C1CCCC1 [GSK650394] (first compound 0.006 µM, partner dose 0.16 µM), the “cleaved PARP positive nuclei fraction” value with MZ2-MEL worked out at 138%; in the experiment on MeWo, 56.1%; with RPMI7951, 102%; in the experiment with RVH-421 it was 101%; in the experiment with SkMel28 it was 183%; in the experiment on SkMel2, 168%. Also, the “cleaved PARP positive nuclei fraction” value worked out at 58.1% with SkMel30; 151% in the experiment with SkMel5; 56.3% in the experiment with UACC257; 76.9% with UACC62; 72.3% in the experiment on WM115; 57.5% with WM1716. The “cleaved PARP positive nuclei fraction” value in the experiment with WM1745 worked out at 90.6%; in the experiment on WM3526, 65.8%; with WM3619, 111%; in the experiment with WM451Lu, 104%.

On to `N#CC[C@H](C1CCCC1)n1cc(-c2ncnc3[nH]ccc23)cn1` [ruxolitinib] + O=C(Nc1cccc(Cl)c1)Nc1ncc(CCNc2ncnc3ccsc23)s1 [SNS314] (first compound 1 µM, partner dose 0.0008 µM), for which the “cleaved PARP positive nuclei fraction” value in the experiment on MZ2-MEL stood at 22.1%; in the experiment on MeWo, 60.3%; with RPMI7951 it was 69.4%; in the experiment with RVH-421, 195%; in the experiment with SkMel28, 65.6%; in the experiment with SkMel2, 22.1%. Besides, the “cleaved PARP positive nuclei fraction” value with SkMel30 amounted to 56.2%; in the experiment with SkMel5, 62.7%; with UACC257, 68.6%; with UACC62 it was 242%; in the experiment with WM115 it was 156%; in the experiment on WM1716 it was 129%. Moreover, the “cleaved PARP positive nuclei fraction” value came out at 81.3% in the experiment on WM1745, 53.7% with WM3526, 77.8% with WM3619 and 100% in the experiment with WM451Lu.

On to `O=c1[nH]nc(Sc2ncc([N+](=O)[O-])s2)n1-c1ccc2c(c1)OCCO2` + Cn1cc(/C=C2\C(=O)Nc3cccnc32)c2ccccc21 [GW441756] (first compound 0.2 µM, partner dose 0.4 µM), for which the “cleaved PARP positive nuclei fraction” value was determined as 138% in the experiment on MZ2-MEL; 67.3% with MeWo; 71.9% in the experiment on RPMI7951; 53.7% with RVH-421; 73.5% in the experiment with SkMel28; 24.9% in the experiment on SkMel2. The “cleaved PARP positive nuclei fraction” value was found to be 40.1% in the experiment with SkMel30; 78.7% in the experiment with SkMel5; 251% in the experiment with UACC257; 163% in the experiment with UACC62; 99.5% in the experiment with WM115; 43.9% with WM1716. Besides, the “cleaved PARP positive nuclei fraction” value in the experiment with WM1745 stood at 185%; in the experiment on WM3526 it was 49.7%; in the experiment with WM3619, 104%; in the experiment on WM451Lu it was 47.8%.

Regarding `Cc1cn(-c2cc(NC(=O)c3ccc(C)c(Nc4nccc(-c5cccnc5)n4)c3)cc(C(F)(F)F)c2)cn1` [nilotinib] + NC(=O)Nc1cc(-c2cccc(F)c2)sc1C(=O)N[C@H]1CCCNC1 [AZD7762] (first compound 0.2 µM, partner dose 0.02 µM), the “cleaved PARP positive nuclei fraction” value was found to be 47.4% with MZ2-MEL; 80.8% in the experiment on MeWo; 175% in the experiment with RPMI7951; 87% with RVH-421; 22.6% in the experiment on SkMel28; 118% in the experiment with SkMel2. Moreover, the “cleaved PARP positive nuclei fraction” value in the experiment on SkMel30 came out at 68.5%; with SkMel5, 44.8%; in the experiment with UACC257, 45.6%; in the experiment on UACC62 it was 73%; in the experiment with WM115, 185%; with WM1716, 91.1%. Also, the “cleaved PARP positive nuclei fraction” value in the experiment on WM1745 worked out at 104%; with WM3526 it was 73.8%; in the experiment with WM3619, 238%; in the experiment on WM451Lu, 105%.

Consider `Cc1cc(Nc2cc(N3CCN(C)CC3)nc(Sc3ccc(NC(=O)C4CC4)cc3)n2)n[nH]1` [Tozasertib] + CN(NC(=O)CC(=O)NN(C)C(=S)c1ccccc1)C(=S)c1ccccc1 [STA4783] (first compound 0.006 µM, partner dose 0.006 µM), for which the “cleaved PARP positive nuclei fraction” value in the experiment with MZ2-MEL is 118%; with MeWo, 90.8%; in the experiment on RPMI7951, 106%; with RVH-421 it was 196%; in the experiment on SkMel28, 203%; with SkMel2 it was 16.8%. In addition, the “cleaved PARP positive nuclei fraction” value came out at 375% in the experiment with SkMel30; 116% in the experiment on SkMel5; 104% in the experiment with UACC257; 132% in the experiment on UACC62; 240% in the experiment with WM115; 178% with WM1716. Besides, the “cleaved PARP positive nuclei fraction” value in the experiment on WM1745 was found to be 163%; in the experiment on WM3526, 57.4%; in the experiment with WM3619 it was 137%; in the experiment with WM451Lu it was 112%.

As to `Cc1cc(Nc2cc(N3CCN(C)CC3)nc(Sc3ccc(NC(=O)C4CC4)cc3)n2)n[nH]1` [Tozasertib] + COc1ccc(COc2ccc(Cc3cnc(N)nc3N)cc2OC)cc1 [GW2580] (first compound 0.006 µM, partner dose 1 µM), the “cleaved PARP positive nuclei fraction” value in the experiment with MZ2-MEL amounted to 189%; in the experiment with MeWo, 39.8%; in the experiment with RPMI7951 it was 37.4%; in the experiment with RVH-421 it was 43%; in the experiment on SkMel28, 140%; in the experiment on SkMel2 it was 78%. The “cleaved PARP positive nuclei fraction” value in the experiment on SkMel30 turned out to be 40.4%; in the experiment with SkMel5, 72.9%; in the experiment with UACC257, 134%; in the experiment with UACC62 it was 264%; in the experiment on WM115, 192%; in the experiment on WM1716, 149%. Besides, the “cleaved PARP positive nuclei fraction” value was 97.3% in the experiment with WM1745, 486% in the experiment with WM3526, 108% in the experiment with WM3619 and 269% in the experiment on WM451Lu.
